Results are given in words; binding and its absence hold for the method and conditions named. Binding seen in cells or lysates may run through a third protein. Some entries that bind do so weakly or less than the wild type.

The chains behind the UniProt entries cited, without tags or fusion partners.
UniProt P63073: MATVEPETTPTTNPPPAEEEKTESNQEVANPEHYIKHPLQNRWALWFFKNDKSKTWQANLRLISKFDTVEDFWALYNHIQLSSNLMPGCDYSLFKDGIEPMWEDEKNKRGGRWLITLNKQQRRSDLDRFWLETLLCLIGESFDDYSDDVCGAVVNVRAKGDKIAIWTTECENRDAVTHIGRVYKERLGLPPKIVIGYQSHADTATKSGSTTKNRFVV
UniProt Q7TMB8: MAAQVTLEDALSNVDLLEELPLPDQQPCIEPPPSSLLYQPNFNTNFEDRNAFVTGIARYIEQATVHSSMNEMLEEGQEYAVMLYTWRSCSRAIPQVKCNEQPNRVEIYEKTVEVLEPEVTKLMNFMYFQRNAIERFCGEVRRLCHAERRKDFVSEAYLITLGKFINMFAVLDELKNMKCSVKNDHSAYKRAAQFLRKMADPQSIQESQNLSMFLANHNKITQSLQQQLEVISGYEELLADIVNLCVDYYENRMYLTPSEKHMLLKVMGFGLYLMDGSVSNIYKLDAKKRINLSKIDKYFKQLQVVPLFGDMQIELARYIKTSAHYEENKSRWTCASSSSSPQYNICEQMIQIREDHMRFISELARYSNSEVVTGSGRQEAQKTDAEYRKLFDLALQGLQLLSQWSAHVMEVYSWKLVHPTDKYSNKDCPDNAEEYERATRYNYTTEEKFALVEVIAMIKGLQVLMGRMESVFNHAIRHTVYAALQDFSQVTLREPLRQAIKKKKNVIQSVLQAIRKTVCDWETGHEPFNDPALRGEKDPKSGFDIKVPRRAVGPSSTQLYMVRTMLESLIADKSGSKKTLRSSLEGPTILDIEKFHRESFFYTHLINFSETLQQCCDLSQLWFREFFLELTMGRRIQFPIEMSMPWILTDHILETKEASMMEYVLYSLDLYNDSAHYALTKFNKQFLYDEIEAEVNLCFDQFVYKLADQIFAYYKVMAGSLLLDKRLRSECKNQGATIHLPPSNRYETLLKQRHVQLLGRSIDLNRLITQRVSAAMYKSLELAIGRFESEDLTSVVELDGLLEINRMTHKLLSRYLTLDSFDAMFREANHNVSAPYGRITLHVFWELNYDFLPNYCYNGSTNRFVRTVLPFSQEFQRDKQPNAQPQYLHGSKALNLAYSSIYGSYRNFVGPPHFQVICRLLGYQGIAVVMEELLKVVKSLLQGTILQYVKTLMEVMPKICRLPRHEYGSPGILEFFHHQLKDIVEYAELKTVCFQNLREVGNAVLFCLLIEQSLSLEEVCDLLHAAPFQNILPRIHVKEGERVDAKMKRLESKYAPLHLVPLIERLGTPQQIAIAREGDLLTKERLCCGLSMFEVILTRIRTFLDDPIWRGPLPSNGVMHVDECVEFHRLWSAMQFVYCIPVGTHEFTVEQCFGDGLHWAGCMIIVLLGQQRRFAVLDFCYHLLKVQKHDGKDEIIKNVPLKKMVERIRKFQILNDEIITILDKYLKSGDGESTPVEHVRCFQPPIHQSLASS

Assay [1] has as its target eIF4E (mouse (endogenous in hippocampus and primary hippocampal neurons)) (UniProt P63073). In words: co-IP; cultured neurons with lentiviral shRNA to Eif4g1 or control non-targeting shRNA (Supplemental Fig. 15; legend not shown).
The target is the same in assay [2]. In words: co-IP; hippocampal tissue lysates of WT, Fmr1 KO and Fmr1 KO + Rilmenidine mice; immunoprecipitated with an anti-eIF4E antibody overnight at 4°C, Protein A/G agarose; blotted for eIF4E, eIF4G1 and CYFIP1; naive IgG as negative control.

In the case of “cytoplasmic FMRP-interacting protein 1 (CYFIP1) (from UniProt Q7TMB8 1-1253)”, the binding entry in assay [1] and in assay [2] was “binds” in each case.

These data come from paper PMC12408003.
